According to publication PMC10884759, “Decreased pyruvate dehydrogenase activity in Tafazzin-deficient cells is caused by dysregulation of pyruvate dehydrogenase phosphatase 1 (PDP1)” (The Journal of Biological Chemistry, 2024):
No constants are given. Whether binding was seen depends on the method and setting. Binding seen in cells or lysates may run through a third protein. Some binding calls cover weakened binding; strength is not graded here. For some assays here: Sequences can lack the tags named with a protein.

Key:
[1] = biological target: T1, endogenous pyruvate dehydrogenase phosphatase 1 (PDP1) (mouse (endogenous in C2C12)) (UniProt Q3UV70); assay: co-IP; endogenous proteins in WT and TAZ-KO C2C12 myoblast lysates, immunoprecipitated with specific antibodies, Western blot; negative control: WT lysate on empty beads without primary antibody
T1 sequence: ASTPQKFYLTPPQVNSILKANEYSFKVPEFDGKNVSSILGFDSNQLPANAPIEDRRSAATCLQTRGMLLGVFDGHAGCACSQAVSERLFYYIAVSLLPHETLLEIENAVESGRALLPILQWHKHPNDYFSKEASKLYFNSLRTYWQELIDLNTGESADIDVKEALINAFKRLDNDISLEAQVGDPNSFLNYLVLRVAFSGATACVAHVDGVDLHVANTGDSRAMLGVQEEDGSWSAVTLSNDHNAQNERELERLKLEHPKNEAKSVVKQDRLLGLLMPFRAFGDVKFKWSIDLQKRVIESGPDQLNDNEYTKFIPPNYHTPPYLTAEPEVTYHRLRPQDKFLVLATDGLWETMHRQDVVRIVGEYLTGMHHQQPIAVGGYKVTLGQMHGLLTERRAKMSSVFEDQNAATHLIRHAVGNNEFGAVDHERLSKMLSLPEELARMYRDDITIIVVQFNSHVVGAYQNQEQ

[2] = biological target: T2, recombinant PDP1 protein (PDP1-His6), mature polypeptide of pyruvate dehydrogenase phosphatase 1 (mouse (from the Ensembl transcript of the C3H/HeJ mouse strain; not stated in words for the cDNA)) (UniProt Q3UV70); assay: pull-down; purified PDP1-His6 immobilised on HisPur resin columns (Pierce polyHis pull-down kit); clarified lysates of WT and TAZ-KO C2C12 myoblasts (25 mM Tris, 75 mM NaCl, 0.1% Tween 20, pH 7.4) incubated overnight at 4 °C; 5 washes, elution, Western blot; only the target purified
T2 sequence: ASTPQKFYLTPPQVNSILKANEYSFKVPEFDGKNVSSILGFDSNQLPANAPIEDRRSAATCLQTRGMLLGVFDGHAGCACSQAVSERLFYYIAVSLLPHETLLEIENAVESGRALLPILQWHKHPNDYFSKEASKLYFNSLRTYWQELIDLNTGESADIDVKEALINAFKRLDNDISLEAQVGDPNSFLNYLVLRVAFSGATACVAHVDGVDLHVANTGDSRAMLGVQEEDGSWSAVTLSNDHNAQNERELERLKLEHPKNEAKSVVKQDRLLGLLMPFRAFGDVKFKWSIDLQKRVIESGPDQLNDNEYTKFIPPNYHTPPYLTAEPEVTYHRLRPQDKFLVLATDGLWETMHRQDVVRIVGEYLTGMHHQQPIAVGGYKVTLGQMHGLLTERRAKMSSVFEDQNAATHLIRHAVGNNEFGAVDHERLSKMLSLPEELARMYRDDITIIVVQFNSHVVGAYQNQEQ

- binding [1]: binds
- binding [2]: binds
B1: dihydrolipoamide acetyltransferase (E2) subunit of the PDH complex (protein, UniProt Q8BMF4 86-642)
chain: SLPPHQKVPLPSLSPTMQAGTIARWEKKEGEKISEGDLIAEVETDKATVGFESLEECYMAKILVPEGTRDVPVGSIICITVEKPQDIEAFKNYTLDLAAAAAPQAAPAAAPAPAAAPAAPSASAPGSSYPTHMQIVLPALSPTMTMGTVQRWEKKVGEKLSEGDLLAEIETDKATIGFEVQEEGYLAKILVPEGTRDVPLGAPLCIIVEKQEDIAAFADYRPTEVTSLKPQAAPPAPPPVAAVPPTPQPVAPTPSAAPAGPKGRVFVSPLAKKLAAEKGIDLTQVKGTGPEGRIIKKDIDSFVPSKAAPAAAAAMAPPGPRVAPAPAGVFTDIPISNIRRVIAQRLMQSKQTIPHYYLSVDVNMGEVLLVRKELNKMLEGKGKISVNDFIIKASALACLKVPEANSSWMDTVIRQNHVVDVSVAVSTPAGLITPIVFNAHIKGLETIASDVVSLASKAREGKLQPHEFQGGTFTISNLGMFGIKNFSAIINPPQACILAIGASEDKLIPADNEKGFDVASVMSVTLSCDHRVVDGAVGAQWLAEFKKYLEKPITMLL
